Among the data in paper PMC4157451 are binding values, retold here.

These are yes or no findings as the source states them, for the method shown. Some results given as binding are weak or reduced against the parent protein; the word gives no strength.

This test concerns the target T1, Selenomethionine-labelled PvuRts1I, Q52612.
T1 chain: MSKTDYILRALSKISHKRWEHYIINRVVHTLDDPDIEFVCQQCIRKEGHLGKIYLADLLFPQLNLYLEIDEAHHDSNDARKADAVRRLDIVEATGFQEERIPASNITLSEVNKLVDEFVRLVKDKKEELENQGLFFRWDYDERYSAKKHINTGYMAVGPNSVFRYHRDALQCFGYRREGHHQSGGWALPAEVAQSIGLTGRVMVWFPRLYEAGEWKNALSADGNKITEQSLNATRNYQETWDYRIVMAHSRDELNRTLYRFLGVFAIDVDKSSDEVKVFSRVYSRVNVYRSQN
The experiment in a line: crystal structure; Se-PvuRts1I without DNA, sitting drop, 286 K, space group P4(3)2(1)2, 2.9 Å; dimer with a twofold symmetry-related molecule, also identified by PISA; both purified. As to conditions: remark: other sources report otherwise.

B1: Selenomethionine-labelled PvuRts1I, Q52612 1-293 (enzyme)
chain: MSKTDYILRALSKISHKRWEHYIINRVVHTLDDPDIEFVCQQCIRKEGHLGKIYLADLLFPQLNLYLEIDEAHHDSNDARKADAVRRLDIVEATGFQEERIPASNITLSEVNKLVDEFVRLVKDKKEELENQGLFFRWDYDERYSAKKHINTGYMAVGPNSVFRYHRDALQCFGYRREGHHQSGGWALPAEVAQSIGLTGRVMVWFPRLYEAGEWKNALSADGNKITEQSLNATRNYQETWDYRIVMAHSRDELNRTLYRFLGVFAIDVDKSSDEVKVFSRVYSRVNVYRSQN
modifications: here or on the partner: selenomethionine in place of methionine; selenomethionine in place of methionine
B1: the binding entry is given as “binds”.
